{"source": "PubChem BioAssay AID1259425 (University of Nebraska Medical Center, 2018)", "screen": "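Compare each knockdown with KSR1 silencing using changes in marker transcripts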 (primary screen)", "system": "HCT116 human colon cancer cells", "reagents": "siRNA pool against human genes, 50 nM siRNA", "read-out": "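After 50 nM siRNA pool, branched-DNA assay measures six marker transcripts per well, minus blank, normalised to the geometric mean of two housekeeping transcripts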", "scale": "BNIP3L mRNA: higher = more BNIP3L transcript after knockdown", "note": "This is one part, drawn at random, of about 14,000 reagents. Further read-outs or replicates are left out here. Not stated in the record: the time to read-out."}
{"Gene":"PCMT1 (protein-L-isoaspartate (D-aspartate) O-methyltransferase)","BNIP3L mRNA, set 1":0.161}
{"Gene":"SCG5 (secretogranin V)","BNIP3L mRNA, set 1":0.156}
{"Gene":"VAPB (VAMP associated protein B and C)","BNIP3L mRNA, set 1":0.235}
{"Gene":"DNASE1L1 (deoxyribonuclease 1 like 1)","BNIP3L mRNA, set 1":0.176}
{"Gene":"CEP131 (centrosomal protein 131)","BNIP3L mRNA, set 1":0.131}
{"Gene":"FANCD2 (FA complementation group D2)","BNIP3L mRNA, set 1":0.14}
{"Gene":"SIVA1 (SIVA1 apoptosis inducing factor)","BNIP3L mRNA, set 1":0.168}
{"Gene":"DPEP2 (dipeptidase 2)","BNIP3L mRNA, set 1":0.135}
{"Gene":"DOCK1 (dedicator of cytokinesis 1)","BNIP3L mRNA, set 1":0.0714}
{"Gene":"FGG (fibrinogen gamma chain)","BNIP3L mRNA, set 1":0.129}
{"Gene":"GAGE7 (G antigen 7)","BNIP3L mRNA, set 1":0.202}
{"Gene":"NELL1 (neural EGFL like 1)","BNIP3L mRNA, set 1":0.101}
{"Gene":"TNFRSF18 (TNF receptor superfamily member 18)","BNIP3L mRNA, set 1":0.168}
{"Gene":"APOD (apolipoprotein D)","BNIP3L mRNA, set 1":0.121}
{"Gene":"SELENOP (selenoprotein P)","BNIP3L mRNA, set 1":0.187}
{"Gene":"GFOD2 (Gfo/Idh/MocA-like oxidoreductase domain containing 2)","BNIP3L mRNA, set 1":0.0349}
{"Gene":"ITGBL1 (integrin subunit beta like 1)","BNIP3L mRNA, set 1":0.0893}
{"Gene":"VTN (vitronectin)","BNIP3L mRNA, set 1":0.206}
{"Gene":"NSG1 (neuronal vesicle trafficking associated 1)","BNIP3L mRNA, set 1":0.125}
{"Gene":"TPT1 (tumor protein, translationally-controlled 1)","BNIP3L mRNA, set 1":0.083}
{"Gene":"NFE2L3 (NFE2 like bZIP transcription factor 3)","BNIP3L mRNA, set 1":0.141}
{"Gene":"KIF15 (kinesin family member 15)","BNIP3L mRNA, set 1":0.0712}
{"Gene":"MED6 (mediator complex subunit 6)","BNIP3L mRNA, set 1":0.169}
{"Gene":"SULT1A3 (sulfotransferase family 1A member 3)","BNIP3L mRNA, set 1":0.081}
{"Gene":"MBD3 (methyl-CpG binding domain protein 3)","BNIP3L mRNA, set 1":0.116}
{"Gene":"TRPC1","BNIP3L mRNA, set 1":0.0594}
{"Gene":"SFN (stratifin)","BNIP3L mRNA, set 1":0.0484}
{"Gene":"MLX (MAX dimerization protein MLX)","BNIP3L mRNA, set 1":0.126}

A run of entries taken from the entries so far, for reference:
{"Gene":"SELENOP (selenoprotein P)","BNIP3L mRNA, set 1":0.187}
{"Gene":"GFOD2 (Gfo/Idh/MocA-like oxidoreductase domain containing 2)","BNIP3L mRNA, set 1":0.0349}
{"Gene":"ITGBL1 (integrin subunit beta like 1)","BNIP3L mRNA, set 1":0.0893}
